Measured values from PMC9859306.
Results are given in words; binding and its absence hold for the method and conditions named. Binding seen in cells or lysates may run through a third protein. Some binding calls cover weakened binding; strength is not graded here.

Amino acid sequences for entries named in this document (tags omitted). A change or cut given only in a name is not applied to a line headed by its entry. Chains listed by the source or under a name are the forms on record and can include a tag or linker.
UniProt Q9NRH3: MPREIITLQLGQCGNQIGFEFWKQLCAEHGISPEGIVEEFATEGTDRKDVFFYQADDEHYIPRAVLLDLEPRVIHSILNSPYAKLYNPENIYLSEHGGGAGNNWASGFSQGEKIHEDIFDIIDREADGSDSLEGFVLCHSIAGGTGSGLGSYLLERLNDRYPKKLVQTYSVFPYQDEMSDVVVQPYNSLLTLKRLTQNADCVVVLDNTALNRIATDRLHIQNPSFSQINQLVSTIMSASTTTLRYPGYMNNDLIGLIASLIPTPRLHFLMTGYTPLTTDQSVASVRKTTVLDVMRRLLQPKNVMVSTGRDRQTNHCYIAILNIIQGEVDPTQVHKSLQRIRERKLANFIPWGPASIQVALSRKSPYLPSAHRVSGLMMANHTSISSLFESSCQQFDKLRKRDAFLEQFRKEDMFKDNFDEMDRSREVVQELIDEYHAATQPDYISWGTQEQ
recombinant mutant TUBG2-FLAG p.(Met249Ile) (Q9NRH3, form named): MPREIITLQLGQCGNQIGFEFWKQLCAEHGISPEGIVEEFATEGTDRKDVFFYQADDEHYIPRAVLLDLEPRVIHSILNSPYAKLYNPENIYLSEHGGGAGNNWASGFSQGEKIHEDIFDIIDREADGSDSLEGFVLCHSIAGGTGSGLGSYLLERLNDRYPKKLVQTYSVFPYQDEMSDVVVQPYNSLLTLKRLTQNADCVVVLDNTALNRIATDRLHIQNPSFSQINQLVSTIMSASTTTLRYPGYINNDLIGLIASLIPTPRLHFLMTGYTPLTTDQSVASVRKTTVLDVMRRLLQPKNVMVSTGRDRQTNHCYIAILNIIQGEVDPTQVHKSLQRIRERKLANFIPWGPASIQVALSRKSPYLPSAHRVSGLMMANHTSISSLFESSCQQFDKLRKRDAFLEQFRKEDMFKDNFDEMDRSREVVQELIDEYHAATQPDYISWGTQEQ
UniProt Q9BSJ2: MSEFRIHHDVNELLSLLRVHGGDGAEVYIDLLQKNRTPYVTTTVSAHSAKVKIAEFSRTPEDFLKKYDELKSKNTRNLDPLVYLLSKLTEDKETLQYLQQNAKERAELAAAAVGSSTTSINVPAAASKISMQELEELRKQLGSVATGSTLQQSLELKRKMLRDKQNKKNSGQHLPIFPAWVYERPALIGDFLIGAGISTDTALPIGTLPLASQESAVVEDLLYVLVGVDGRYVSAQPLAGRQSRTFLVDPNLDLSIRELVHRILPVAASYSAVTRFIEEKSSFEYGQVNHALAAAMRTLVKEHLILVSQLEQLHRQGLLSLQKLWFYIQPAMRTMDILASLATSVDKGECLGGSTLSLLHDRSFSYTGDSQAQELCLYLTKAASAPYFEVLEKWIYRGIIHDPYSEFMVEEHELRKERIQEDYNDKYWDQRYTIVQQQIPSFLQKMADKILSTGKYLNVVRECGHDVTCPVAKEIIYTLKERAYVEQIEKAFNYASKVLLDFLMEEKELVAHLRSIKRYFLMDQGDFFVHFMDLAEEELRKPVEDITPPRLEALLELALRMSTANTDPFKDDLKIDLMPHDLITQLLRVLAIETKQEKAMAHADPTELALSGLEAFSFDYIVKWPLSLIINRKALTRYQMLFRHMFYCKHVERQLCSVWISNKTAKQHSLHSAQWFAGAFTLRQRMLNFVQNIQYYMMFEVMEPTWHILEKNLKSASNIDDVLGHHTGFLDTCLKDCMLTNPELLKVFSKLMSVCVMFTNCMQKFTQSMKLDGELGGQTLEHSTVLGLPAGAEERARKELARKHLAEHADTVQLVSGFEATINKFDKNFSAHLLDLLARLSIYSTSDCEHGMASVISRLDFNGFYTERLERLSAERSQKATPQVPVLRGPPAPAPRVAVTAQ

How the values were obtained:
[1] = biological target: recombinant mutant TUBG2-FLAG p.(Met249Ile) (human) (UniProt Q9NRH3); test: co-IP; mouse anti-FLAG antibody pre-bound to protein G Dynabeads, incubated overnight at 4 °C with clarified lysate of 293T cells transfected with WT, variant TUBG2-FLAG or empty vector; 50 mM HEPES-KOH pH 7.2, 1 mM MgCl2, 1 mM EGTA, 100 mM KCl, 0.5 mM GTP; washes with 0.1% Tween-20; blot for GCP2
[2] = biological target: recombinant wild type TUBG2-FLAG (human) (UniProt Q9NRH3); test: as above

binding [1]: binds | binding [2]: binds
Substance: GCP2 (from UniProt Q9BSJ2 1-902)
